Results are given in words; binding and its absence hold for the method and conditions named.

Protein sequences, listed by entry. Tags and fused reporters are not part of them. Lines headed by an entry give the natural chain unless they say otherwise; changes in a name come on top.
UniProt P11362: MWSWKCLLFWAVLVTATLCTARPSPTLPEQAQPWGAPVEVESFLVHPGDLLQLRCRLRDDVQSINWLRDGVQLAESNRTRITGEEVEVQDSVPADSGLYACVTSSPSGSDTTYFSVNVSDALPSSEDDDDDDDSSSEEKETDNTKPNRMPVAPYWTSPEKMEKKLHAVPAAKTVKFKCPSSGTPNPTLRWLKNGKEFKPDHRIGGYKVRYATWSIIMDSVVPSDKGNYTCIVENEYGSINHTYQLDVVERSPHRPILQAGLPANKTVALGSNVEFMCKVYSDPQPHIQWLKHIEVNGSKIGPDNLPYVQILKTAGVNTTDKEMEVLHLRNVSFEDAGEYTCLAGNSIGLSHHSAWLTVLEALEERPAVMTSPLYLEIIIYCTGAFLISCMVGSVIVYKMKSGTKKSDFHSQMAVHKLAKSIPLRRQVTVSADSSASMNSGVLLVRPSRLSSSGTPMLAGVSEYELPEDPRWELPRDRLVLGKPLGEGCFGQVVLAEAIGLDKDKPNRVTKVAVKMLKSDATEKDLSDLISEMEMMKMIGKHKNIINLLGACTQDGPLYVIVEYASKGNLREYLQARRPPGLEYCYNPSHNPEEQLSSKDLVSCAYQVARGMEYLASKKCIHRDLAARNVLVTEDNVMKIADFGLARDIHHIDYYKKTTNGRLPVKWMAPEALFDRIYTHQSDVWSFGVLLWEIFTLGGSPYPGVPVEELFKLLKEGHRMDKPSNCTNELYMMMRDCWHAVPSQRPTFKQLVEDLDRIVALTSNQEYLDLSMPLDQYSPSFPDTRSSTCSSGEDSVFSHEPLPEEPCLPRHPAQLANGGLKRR

The target in the experiment is GST-tagged FGFR1 1-310 truncated fragment (human) (UniProt P11362). Put plainly: pull-down; recombinant proteins from E. coli (Supplementary Fig. 3d,e); which partner was immobilised is not given; both purified.

With “His-tagged hCINAP (from UniProt Q9Y3D8 1-172) (enzyme)”, the binding result is reported as “no binding”.

The values above are taken from paper PMC5454382.
